Measurements: the supplement of paper PMC4604168 (melanoma cell lines)
The list shows a part of the results. Repeats are few or missing, and single values can be far off.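 Cells were imaged in 1,536-well plates, and nuclei stained with an antibody against cleaved PARP were counted against all DNA-stained nuclei to give the apoptosis fraction. Screening doses were chosen to leave most cells alive, and resting and induced cleaved-PARP levels differ strongly between cell lines.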

What follows are molecules tested on MeWo (assay: cleaved PARP positive nuclei fraction relative to DMSO control; melanoma cells; higher = more apoptosis). Settings: library dose: low library concentration; 72 h.

Compound	cleaved PARP positive nuclei fraction
CCCCCCCCCCCCCCCCCCOP(=O)([O-])OC1CC[N+](C)(C)CC1 [Perifosine] + C#Cc1cccc(Nc2ncnc3cc(OCCOC)c(OCCOC)cc23)c1 [erlotinib] (first compound 0.4 µM, partner dose 0.8 µM)	106%
COc1cc([C@@H]2c3cc4c(cc3[C@@H](O[C@@H]3O[C@@H]5CO[C@@H](C)O[C@H]5[C@H](O)[C@H]3O)[C@H]3COC(=O)[C@H]23)OCO4)cc(OC)c1O [etoposide] + C[C@]1(O)C[C@@H](c2nc(-c3ccc4ccc(-c5ccccc5)nc4c3)c3c(N)nccn32)C1 [OSI906] (first compound 0.02 µM, partner dose 0.4 µM)	73.5%
CCCCCCCCCCCCCCCCCCOP(=O)([O-])OC1CC[N+](C)(C)CC1 [Perifosine] + C[C@@H](N)c1ccc(C(=O)Nc2ccnc3[nH]ccc23)cc1 [RKI983] (first compound 0.4 µM, partner dose 0.4 µM)	131%
CCCCCCCCCCCCCCCCCCOP(=O)([O-])OC1CC[N+](C)(C)CC1 [Perifosine] + CCCS(=O)(=O)Nc1ccc(F)c(C(=O)c2c[nH]c3ncc(Cl)cc23)c1F [PLX4720] (first compound 0.4 µM, partner dose 0.08 µM)	44.2%
O=C(/C=C/c1cccnc1)NCCCCC1CCN(C(=O)c2ccccc2)CC1 + Cc1cc(Nc2cc(N3CCN(C)CC3)nc(/C=C/c3ccccc3)n2)n[nH]1 [ENMD2076] (first compound 0.01 µM, partner dose 0.04 µM)	129%
O=C(/C=C/c1cccnc1)NCCCCC1CCN(C(=O)c2ccccc2)CC1 + Clc1ccc(Nc2nnc(Cc3ccncc3)c3ccccc23)cc1 [vatalanib] (first compound 0.01 µM, partner dose 2 µM)	167%
Cc1cc(Nc2cc(N3CCN(C)CC3)nc(Sc3ccc(NC(=O)C4CC4)cc3)n2)n[nH]1 [Tozasertib] + CC1(C)CCC(c2ccc(Cl)cc2)=C(CN2CCN(c3ccc(C(=O)NS(=O)(=O)c4ccc(N[C@H](CCN5CCOCC5)CSc5ccccc5)c(S(=O)(=O)C(F)(F)F)c4)cc3)CC2)C1 [ABT263] (first compound 0.006 µM, partner dose 0.4 µM)	324%
CCCCCCCCCCCCCCCCCCOP(=O)([O-])OC1CC[N+](C)(C)CC1 [Perifosine] + NC(=O)c1ccc(N(C(N)=O)c2c(F)cccc2F)nc1-c1ccc(F)cc1F [VX702] (first compound 0.4 µM, partner dose 0.4 µM)	71%
CCCCCCCCCCCCCCCCCCOP(=O)([O-])OC1CC[N+](C)(C)CC1 [Perifosine] + CC(=O)c1c(C)c2cnc(Nc3ccc(N4CCNCC4)cn3)nc2n(C2CCCC2)c1=O [palbociclib] (first compound 0.4 µM, partner dose 0.04 µM)	14.5%
Cc1ccc(Nc2nccc(N(C)c3ccc4c(C)n(C)nc4c3)n2)cc1S(N)(=O)=O [Pazopanib] + O=C(O)c1ccc2c(c1)nc(Nc1cccc(Cl)c1)c1ccncc12 [CX4945] (first compound 0.4 µM, partner dose 0.4 µM)	117%
Cc1cn(-c2cc(NC(=O)c3ccc(C)c(Nc4nccc(-c5cccnc5)n4)c3)cc(C(F)(F)F)c2)cn1 [nilotinib] + C=C(c1ccc(C(=O)O)cc1)c1cc2c(cc1C)C(C)(C)CCC2(C)C [Bexarotene] (first compound 0.2 µM, partner dose 2 µM)	297%
Cc1cc(Nc2cc(N3CCN(C)CC3)nc(Sc3ccc(NC(=O)C4CC4)cc3)n2)n[nH]1 [Tozasertib] + O=C(O)[C@@H]1[O][Sb](=[O])([O][Sb]2(=[O])[O][C@H]([C@H](O)CO)[C@H](O)[C@H](C(=O)O)[O]2)[O][C@H]([C@H](O)CO)[C@@H]1O [stibogluconate] (first compound 0.006 µM, partner dose 2 µM)	132%
O=C(/C=C/c1cccnc1)NCCCCC1CCN(C(=O)c2ccccc2)CC1 + Nc1ccn([C@@H]2O[C@H](CO)[C@@H](O)C2(F)F)c(=O)n1 [gemcitabine] (first compound 0.01 µM, partner dose 0.0004 µM)	89.6%
O=C(/C=C/c1cccnc1)NCCCCC1CCN(C(=O)c2ccccc2)CC1 + O=C(O)c1ccc2c(c1)nc(Nc1cccc(Cl)c1)c1ccncc12 [CX4945] (first compound 0.01 µM, partner dose 0.4 µM)	39.7%
O=C(/C=C/c1cccnc1)NCCCCC1CCN(C(=O)c2ccccc2)CC1 + Cc1ccc(Nc2nccc(N(C)c3ccc4c(C)n(C)nc4c3)n2)cc1S(N)(=O)=O [Pazopanib] (first compound 0.01 µM, partner dose 0.4 µM)	81.4%
Cc1cc(Nc2cc(N3CCN(C)CC3)nc(Sc3ccc(NC(=O)C4CC4)cc3)n2)n[nH]1 [Tozasertib] + CC(C)C[C@H](NC(=O)[C@H](Cc1ccccc1)NC(=O)c1cnccn1)B(O)O [Bortezomib] (first compound 0.006 µM, partner dose 0.001 µM)	113%
Cc1ccc(Nc2nccc(N(C)c3ccc4c(C)n(C)nc4c3)n2)cc1S(N)(=O)=O [Pazopanib] + Cn1c(=O)n(-c2ccc(C(C)(C)C#N)cc2)c2c3cc(-c4cnc5ccccc5c4)ccc3ncc21 [NVP-BEZ235] (first compound 0.4 µM, partner dose 0.004 µM)	708%
Cc1cc(Nc2cc(N3CCN(C)CC3)nc(Sc3ccc(NC(=O)C4CC4)cc3)n2)n[nH]1 [Tozasertib] + CS(=O)(=O)CCNCc1ccc(-c2ccc3ncnc(Nc4ccc(OCc5cccc(F)c5)c(Cl)c4)c3c2)o1 [lapatinib] (first compound 0.006 µM, partner dose 0.8 µM)	114%
Cc1ccc(Nc2nccc(N(C)c3ccc4c(C)n(C)nc4c3)n2)cc1S(N)(=O)=O [Pazopanib] + Nc1nc(F)nc2c1ncn2[C@@H]1O[C@H](CO)[C@@H](O)[C@@H]1O [fludarabine] (first compound 0.4 µM, partner dose 0.2 µM)	300%
N#CC[C@H](C1CCCC1)n1cc(-c2ncnc3[nH]ccc23)cn1 [ruxolitinib] + CC(=O)c1c(C)c2cnc(Nc3ccc(N4CCNCC4)cn3)nc2n(C2CCCC2)c1=O [palbociclib] (first compound 1 µM, partner dose 0.04 µM)	108%
O=C(Nc1cc(C(F)(F)F)cc(C(F)(F)F)c1)c1cc(Cl)ccc1O + Nc1nc(F)nc2c1ncn2[C@@H]1O[C@H](CO)[C@@H](O)[C@@H]1O [fludarabine] (first compound 0.016 µM, partner dose 0.2 µM)	333%
O=C(Nc1cc(C(F)(F)F)cc(C(F)(F)F)c1)c1cc(Cl)ccc1O + O=C(/C=C/c1cccnc1)NCCCCC1CCN(C(=O)c2ccccc2)CC1 [FK866] (first compound 0.016 µM, partner dose 0.01 µM)	197%

Two entries from above, comma-delimited:
Compound,cleaved PARP positive nuclei fraction
"Cc1ccc(Nc2nccc(N(C)c3ccc4c(C)n(C)nc4c3)n2)cc1S(N)(=O)=O [Pazopanib] + Cn1c(=O)n(-c2ccc(C(C)(C)C#N)cc2)c2c3cc(-c4cnc5ccccc5c4)ccc3ncc21 [NVP-BEZ235] (first compound 0.4 µM, partner dose 0.004 µM)",708%
"Cc1cc(Nc2cc(N3CCN(C)CC3)nc(Sc3ccc(NC(=O)C4CC4)cc3)n2)n[nH]1 [Tozasertib] + CS(=O)(=O)CCNCc1ccc(-c2ccc3ncnc(Nc4ccc(OCc5cccc(F)c5)c(Cl)c4)c3c2)o1 [lapatinib] (first compound 0.006 µM, partner dose 0.8 µM)",114%
